Measurements taken from paper PMC9135752.
Results are given in words; binding and its absence hold for the method and conditions named. Binding seen in cells or lysates may run through a third protein. A result given as binding can be weak or reduced; the word gives no strength.

The chains behind the UniProt entries cited, without tags or fusion partners. Where a name states a change or a piece, a line headed by the entry shows the natural chain unless it says otherwise. Residues count along the entry.
UniProt Q86VE9: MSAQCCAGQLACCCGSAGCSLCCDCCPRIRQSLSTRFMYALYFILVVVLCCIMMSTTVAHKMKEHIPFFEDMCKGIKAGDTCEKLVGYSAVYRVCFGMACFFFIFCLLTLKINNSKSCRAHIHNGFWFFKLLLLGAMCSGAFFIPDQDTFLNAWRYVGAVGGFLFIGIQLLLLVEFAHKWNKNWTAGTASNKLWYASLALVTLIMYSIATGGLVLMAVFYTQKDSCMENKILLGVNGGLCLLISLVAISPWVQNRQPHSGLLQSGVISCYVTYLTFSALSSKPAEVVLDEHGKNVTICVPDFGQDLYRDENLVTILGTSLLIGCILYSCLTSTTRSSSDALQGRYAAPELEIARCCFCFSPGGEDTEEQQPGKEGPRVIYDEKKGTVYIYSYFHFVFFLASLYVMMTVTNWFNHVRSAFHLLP
UniProt P0DTC7, residues 16-121: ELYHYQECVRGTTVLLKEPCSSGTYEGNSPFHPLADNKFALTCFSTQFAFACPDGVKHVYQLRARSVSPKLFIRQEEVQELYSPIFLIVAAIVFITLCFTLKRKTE

Tests used:
[1] = biological target: SERINC5-HA (pBJ5-hSERINC5-HA) (human) (UniProt Q86VE9); experiment: co-IP
[2] = biological target: SARS-CoV-2 ORF7a-V5 (pCDNA SARS-CoV-2 ORF7a V5/His) (SARS-CoV-2) (UniProt P0DTC7); experiment: co-IP

Row | Substance | binding [1] | binding [2]
1 | SARS-CoV-2 ORF7a-V5 (pCDNA SARS-CoV-2 ORF7a V5/His) (from UniProt P0DTC7 16-121) | binds | –
2 | SERINC5-HA (pBJ5-hSERINC5-HA) (from UniProt Q86VE9-4) | – | binds
